Among the data in publication PMC12096822 are binding values, retold here.

Protein sequences, listed by entry. Tags and fused reporters are not part of them.
UniProt G3XCV0: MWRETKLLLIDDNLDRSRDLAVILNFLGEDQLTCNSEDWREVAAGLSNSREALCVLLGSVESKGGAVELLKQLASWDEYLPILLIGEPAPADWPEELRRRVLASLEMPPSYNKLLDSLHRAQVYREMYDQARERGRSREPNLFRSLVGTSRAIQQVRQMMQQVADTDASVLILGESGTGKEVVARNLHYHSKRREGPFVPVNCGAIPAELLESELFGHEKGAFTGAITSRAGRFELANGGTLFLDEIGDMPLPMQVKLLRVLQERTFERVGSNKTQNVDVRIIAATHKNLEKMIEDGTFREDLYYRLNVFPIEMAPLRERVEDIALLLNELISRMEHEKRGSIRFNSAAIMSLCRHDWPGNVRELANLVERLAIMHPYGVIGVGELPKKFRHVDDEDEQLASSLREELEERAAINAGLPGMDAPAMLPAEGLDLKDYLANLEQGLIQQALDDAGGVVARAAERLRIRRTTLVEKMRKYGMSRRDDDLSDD

These are yes or no findings as the source states them, for the method shown. Binding seen in cells or lysates may run through a third protein. Binding calls can cover weak binding; strength is not graded here.

The target of test [1] is V5-tagged FleQ (full-length transcriptional regulator FleQ) (Pseudomonas aeruginosa) (UniProt G3XCV0). The test is described as follows: co-IP; 2 mg total cellular protein extract of P. aeruginosa co-producing V5-tagged FleQ and HA-tagged SagS; V5-tagged FleQ precipitated with immobilized anti-V5 antibodies (2 µg/mL); immunoblot with anti-HA antibodies.
The target in test [2] is HA-tagged SagS (orphan sensor / sensor-regulator hybrid SagS) (Pseudomonas aeruginosa) (UniProt Q9I019). Kind of test: co-IP; 2 mg total cellular protein extract of P. aeruginosa co-producing V5-tagged FleQ and HA-tagged SagS; HA-tagged SagS precipitated with immobilized anti-HA antibodies; immunoblot with anti-V5 antibodies.

For “HA-tagged SagS (orphan sensor / sensor-regulator hybrid SagS) (from UniProt Q9I019)”, the binding result in test [1] is given as “binds”.
With “V5-tagged FleQ (full-length transcriptional regulator FleQ) (from UniProt G3XCV0 1-490)”, the binding result in test [2] was “binds”.
